Reference: US6919204B2, “Modulation of gene expression using localization domains” (Sangamo Biosciences, Inc., priority 2000, dated 2005)

Biological target: MTA1-like (Drosophila)
Experiment: co-elution on Superose 6 gel filtration (about 1 MDa) after BioRex 70 and MonoQ, immunoblot

- binding: binds
B1: Drosophila MBD-likeΔ (protein)
chain: MQMNPSVTIERKRVDCSVLPKGWQRDEVRKSGSSANNNASSNNNSSATASSNNNNNKVDVFYYSRALRTDVSLVPPIRQTASIFKQPVTVIRNHKQDPAKAKNEPKHGTREKPKQLFWEKRLERLRACHDSGEELDDISLPKTIRTVGPNVNEQTVLQSVATALHMLNAGVHGQSSTKADLTKNAMAFMNPEQPLMHAVIISEDDIRKQEDRVGVARRKLQDALKT

Results are given in words; binding and its absence hold for the method and conditions named. Binding seen in cells or lysates may run through a third protein. A result given as binding can be weak or reduced; the word gives no strength.
